Data as given in PubChem BioAssay AID1259405 (NCATS, 2018)
The deposit covers about 50,000 reagents; below is a part drawn at random. Of all reagents, about 4,000 (8%) are marked active. 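Mouse siRNA library applied to hamster cells; one well for each siRNA.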 A number with no mark means an inactive call. Reagents against one gene are numbered here.

- Assay: 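Silenced genes that increase secreted GFP made by CHO cells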 (primary screen)
- Cells: Chinese hamster CHO-K1 ovary cells with stable secreted eGFP expression
- Reagent: single siRNA against mouse genes, 0.8 pmol siRNA per well (2 µl of 400 nM stock)
- Time to read-out: 3 days
- Detection: 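Percent of the per-plate non-targeting control median for intracellular GFP per well by laser scanning cytometry and for cell viability by ATP luminescence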
- Scale: GFP, % of control: higher = more GFP per well, higher productivity; viability (ATP), % of control: higher = more viable cells (more ATP)
- Rule for the call: 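Called active when intracellular GFP, relative to negative control, is at or above 120%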

target,siRNA no.,"GFP, % of control","viability (ATP), % of control"
Fbln1,1,111,107
Fbln1,2,64.6,86.5
Nol6,1,77.8,79.1
Nol6,2,102,82.2
Prss12,1,160 (active),65.5
Prss12,2,78.6,59.2
Prss12,3,103,57.7
Fgf8,1,145 (active),109
Fgf8,2,35.2,43.1
Fgf8,3,95.1,64.8
Rnls,1,19.3,18.7
Rnls,2,98.1,84
Rnls,3,108,164
Echdc3,1,55.2,60.6
Echdc3,2,63.4,95.2
Echdc3,3,78.6,76.4
Arl6ip1,1,26.6,9.67
Arl6ip1,2,65,78.8
Arl6ip1,3,90.3,93.5
Pmm1,1,123 (active),85.1
Pmm1,2,73,70
Pmm1,3,85.9,80.8

Entries listed so far whose gene name starts with F or f:
target,siRNA no.,"GFP, % of control","viability (ATP), % of control"
Fbln1,1,111,107
Fbln1,2,64.6,86.5
Fgf8,1,145 (active),109
Fgf8,2,35.2,43.1
Fgf8,3,95.1,64.8

The list goes on:
target,siRNA no.,"GFP, % of control","viability (ATP), % of control"
Muc2,1,63.7,50.6
Muc2,2,72.2,71.5
Muc2,3,16,32.8
Lhfpl6,1,99.5,55.8
Lhfpl6,2,99.6,74.5
Lhfpl6,3,88.5,81.6
Sfmbt1,1,124 (active),62.1
Sfmbt1,2,69.5,54.9
Sfmbt1,3,141 (active),104
Sfmbt1,4,68.1,68.2
Sfmbt1,5,75,95
Sfmbt1,6,61.4,61.9
Tm6sf2,1,39,34.8
Tm6sf2,2,95.3,117
Tm6sf2,3,112,112
Prkacb,1,60.7,45
Prkacb,2,40.4,31
Prkacb,3,87.8,102
Acy1,1,97.8,87.6
Acy1,2,84,76.6
Acy1,3,64.6,23.4
Dkk1,1,84.6,101
Dkk1,2,99.2,103
Dkk1,3,134 (active),78.9
Grhl3,1,46,55.5
Grhl3,2,78.3,86.6
Grhl3,3,54.1,87.7
Glra3,1,100,76.7
Glra3,2,77.6,73.5
Glra3,3,71.1,49
Fgg,1,62.6,70.3
Fgg,2,62.4,69.4
Fgg,3,91.2,81.6
4932435O22Rik,1,151 (active),134
4932435O22Rik,2,24.2,50.7
4932435O22Rik,3,64.6,69.2
4932435O22Rik,4,122 (active),90.4
4932435O22Rik,5,101,96.3
4932435O22Rik,6,81.4,90.6
